Assay results reported in patent publication US4894437 (dated 1990).

Experiment: general procedure: solution-phase peptide synthesis; DCC; DEPC/Et3N

3-(Phenylthio)propionyl-His-Leu [CH(OH)CH2 ]Val-Ile-AMP
final HPLC purity (late stage modification step, 225 nm): 100% purity

Boc-His(Tos)-Leu [CH(OTBDMS)CH2 ]Val-ILe-AMP
step yield (coupling step): 87%

His(Tos)-Leu [CH(OH)CH2 ]Val-IIe-AMP
step yield (late stage modification step): 84%
